## Results from one PubChem assay

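Plate-reader measure of the Venus reporter marking one vaccinia stage in infected cells (the cell line is not named here); read time unknown. The test concentration is not given here. Percent change in Venus reporter signal; lower (more negative) values mean stronger inhibition of that viral stage.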

Values are in %. The controls that fix the scale are not given here. Common to all entries: measured here: Venus reporter, other viral stage. Part of the compounds only, not a random draw; the main read-out is not listed here.

| structure | activity change (Venus) (%) |
|---|---|
| `Cc1ccc(OC(=O)N(C)C[C@H]2OCc3ccccc3-c3c(n(C)c4ccccc34)C(=O)N([C@@H](C)CO)C[C@H]2C)cc1` | -56.59 |
| `COc1ccc(S(=O)(=O)Nc2ccc3c(c2)C(=O)N([C@@H](C)CO)C[C@@H](C)[C@@H](CN(C)S(=O)(=O)c2c(C)noc2C)OCCCC[C@@H](C)O3)cc1` | -57.32 |
| `O=C(C1CCC1)N1CCCCN2[C@@H](CO)[C@@H](c3ccc(-c4ccncc4)cc3)[C@@H]2C1` | -39.66 |
| `C[C@H]1CCCCO[C@H](CN(C)Cc2ccc(C(F)(F)F)cc2)[C@@H](C)CN([C@@H](C)CO)C(=O)c2cc(NS(=O)(=O)c3cccs3)ccc2O1` | -60.15 |
| `COc1ccc(NC(=O)N2CC(=O)N3[C@H](CO)[C@H](c4ccc(C#CCC5CCCC5)cc4)[C@@H]3C2)cc1` | -34.04 |
| `COc1cccc(S(=O)(=O)N(C)C[C@H]2Oc3ncc(C#CC(C)C)cc3C(=O)N([C@@H](C)CO)C[C@@H]2C)c1` | -41.13 |
| `Cc1cc(C(=O)Nc2cccc3c2O[C@@H](CN(C)CC2CCCCC2)[C@H](C)CN([C@@H](C)CO)C3=O)n(C)n1` | -33.79 |
| `CCCNC(=O)N1CC(=O)N2[C@H](C1)[C@@H](c1ccc(C#Cc3ccc(F)cc3)cc1)[C@@H]2CO` | -39.91 |
| `C[C@@H]1CN([C@@H](C)CO)C(=O)c2cccc(NC(=O)Nc3ccc(F)cc3)c2O[C@@H]1CN(C)Cc1ccc(Cl)c(Cl)c1` | -32.87 |
| `C[C@@H]1CN([C@@H](C)CO)C(=O)c2cc(NC(=O)Nc3ccc4c(c3)OCO4)ccc2O[C@H]1CN(C)Cc1ccc(C(F)(F)F)cc1` | -28.43 |
| `C[C@@H]1CN([C@@H](C)CO)C(=O)Cc2cc(NS(=O)(=O)c3cccs3)ccc2O[C@H]1CN(C)Cc1ccc(Oc2ccccc2)cc1` | -39.59 |
| `COc1ccc(-c2ccc(C3[C@@H]4CN(Cc5cc(OC)cc(OC)c5)C[C@H]3N4)cc2)cc1` (stereo partly shown) | -71.48 |
| `O=C(c1ccc(F)cc1)N1CC(=O)N2[C@H](CO)[C@H](c3ccc(C#CC4CCCCC4)cc3)[C@H]2C1` | -55.32 |
| `O=S(=O)(c1ccccc1F)N1CC[C@@H]2[C@H]1c1cc(-c3ccccc3)ccc1N[C@@H]2CO` | -38.23 |
| `CC(C)NC(=O)N1[C@H](C#N)[C@H](c2ccc(-c3ccc(F)cc3)cc2)[C@@H]1CO` | -34.11 |
| `C[C@@H]1CCCCO[C@@H](CN(C)Cc2ccc(Cl)c(Cl)c2)[C@H](C)CN([C@H](C)CO)C(=O)c2cc(N(C)C)ccc2O1` | -53.75 |
| `C[C@@H]1CN([C@H](C)CO)C(=O)Cc2cc(NC(=O)Cc3ccccc3)ccc2O[C@@H]1CN(C)Cc1ccc(C(F)(F)F)cc1` | -32.71 |
| `C[C@@H]1CN([C@@H](C)CO)C(=O)Cc2cc(NC(=O)NC3CCCCC3)ccc2O[C@H]1CN(C)Cc1ccc2c(c1)OCO2` | -38.13 |
| `Cc1noc(C)c1S(=O)(=O)N(C)C[C@@H]1OCCCC[C@@H](C)Oc2ccc(NC(=O)Cc3ccccc3)cc2C(=O)N([C@H](C)CO)C[C@H]1C` | -34.15 |
| `C[C@@H]1CCCCO[C@@H](CN(C)C(=O)Cc2ccccc2)[C@H](C)CN([C@H](C)CO)C(=O)c2cc(NS(=O)(=O)c3ccccc3)ccc2O1` | -39.28 |
| `C[C@@H]1CN([C@H](C)CO)S(=O)(=O)c2ccc(C#Cc3ccccc3F)cc2O[C@@H]1CN(C)C(=O)Cc1cccnc1` | -27.52 |
| `Cc1ccc(S(=O)(=O)N(C)C[C@@H]2Oc3ccc(NC(=O)NC4CCCCC4)cc3CC(=O)N([C@@H](C)CO)C[C@@H]2C)cc1` | -64.15 |
| `N#C[C@H]1[C@@H](c2ccc(C#CC3CCCC3)cc2)[C@H](CO)N1C(=O)c1cccc(F)c1` | -43.33 |
| `C/C=C/c1ccc([C@H]2[C@H](CO)N3CCCCN(S(=O)(=O)c4ccc(F)cc4)C[C@@H]23)cc1` | -37.24 |
| `Cc1ccc(-c2ccc3c(c2)O[C@H](CN(C)C(=O)CC2CC2)[C@H](C)CN([C@@H](C)CO)S3(=O)=O)cc1` | -27.6 |
| `N#C[C@H]1[C@H](c2ccc(-c3ccccc3F)cc2)[C@@H](CO)N1C(=O)C1CCC1` | -27.31 |
| `COCC(=O)Nc1ccc2c(c1)C(=O)N(C)C[C@H](OC)[C@@H](C)CN(CC1CCCCC1)[C@H](C)CO2` | -52 |
| `C[C@H](CO)N1C[C@H](C)[C@@H](CN(C)Cc2ccc(Oc3ccccc3)cc2)Oc2ccc(NS(=O)(=O)c3cccs3)cc2CC1=O` | -23.95 |
| `O=C(C[C@H]1CC[C@H]2[C@@H](COC[C@@H](O)CN2Cc2cc(F)ccc2F)O1)N[C@@H]1CCN(Cc2ccccc2)C1` | -31.44 |
| `C[C@H](CO)N1C[C@H](C)[C@@H](CN(C)C(=O)CN2CCOCC2)Oc2cc(C#Cc3cccc(F)c3)ccc2S1(=O)=O` | -23.52 |
| `C[C@@H]1CN([C@@H](C)CO)S(=O)(=O)c2ccc(C#CC3CCCC3)cc2O[C@@H]1CN(C)C(=O)Cc1ccccc1` | -54.07 |
| `Fc1cccc(CN2[C@@H]3CNC[C@H]2C3c2ccc(-c3ccncc3)cc2)c1` (stereo partly shown) | -27.13 |
| `C[C@@H]1CCCCO[C@@H](CN(C)Cc2ccccc2)[C@@H](C)CN([C@@H](C)CO)C(=O)c2cc(NS(=O)(=O)c3ccc(Cl)cc3)ccc2O1` | -60.8 |
| `CC(C)NC(=O)N1CCCCN2[C@H](CO)[C@H](c3ccc(C#Cc4ccccc4)cc3)[C@H]2C1` | -67.26 |
| `C[C@H]1CN([C@@H](C)CO)C(=O)c2c(c3ccccc3n2C)-c2ccccc2CO[C@@H]1CN(C)Cc1ccc2c(c1)OCO2` | -50.98 |
| `CC(C)CC#Cc1ccc2c(c1)O[C@@H](CN(C)C(=O)C1CCCCC1)[C@@H](C)CN([C@@H](C)CO)S2(=O)=O` | -26.97 |
| `C[C@@H]1CN([C@H](C)CO)C(=O)c2cccc(NC(=O)c3nc4ccccc4s3)c2O[C@H]1CN(C)CC1CCCCC1` | -36.39 |
| `C[C@@H]1CN([C@H](C)CO)C(=O)c2cccc(NC(=O)Nc3ccc4c(c3)OCO4)c2O[C@@H]1CN(C)C(=O)NC1CCCCC1` | -31.08 |
| `C[C@H]1CN([C@@H](C)CO)C(=O)c2ccccc2-c2ccccc2CO[C@H]1CN(C)S(=O)(=O)c1ccc(C(F)(F)F)cc1` | -43.1 |
| `COc1ccccc1NC(=O)N1CCCCN2[C@@H](CO)[C@@H](c3ccc(-c4ccccc4)cc3)[C@@H]2C1` | -76.12 |
| `C[C@H]1CN([C@@H](C)CO)C(=O)c2cc(NS(=O)(=O)c3ccccc3)ccc2O[C@H]1CN(C)Cc1ccc(Cl)c(Cl)c1` | -44.32 |
| `COc1cccc(-c2ccc3c(c2)[C@H]2[C@H](CCN2S(=O)(=O)c2ccccc2F)[C@@H](CO)N3)c1` | -54.69 |
| `O=C(Nc1ccc(F)cc1)N1CCCCN2[C@@H](CO)[C@H](c3ccc(C4=CCCCC4)cc3)[C@@H]2C1` | -57.05 |
| `Cc1ccccc1-c1ccc(C2[C@@H]3CN(C(=O)C4CC4)C[C@H]2N3)cc1` (stereo partly shown) | -73.41 |
| `O=C(CC(F)(F)F)N1C[C@@H]2[C@H](c3ccccc31)[C@@H](CO)N2CC1CCOCC1` | -17.1 |
| `C[C@@H]1CN([C@H](C)CO)C(=O)Cc2cc(NC(=O)CCN3CCOCC3)ccc2O[C@@H]1CN(C)Cc1ccc(-c2ccccc2)cc1` | -36.9 |
| `C[C@@H]1CN([C@@H](C)CO)C(=O)c2c(c3ccccc3n2C)-c2ccccc2CO[C@H]1CN(C)Cc1cccc(F)c1` | -32.99 |
| `O=C(Cc1cccnc1)N1CCCCN2[C@@H](CO)[C@@H](c3ccc(C#CC4CCCC4)cc3)[C@@H]2C1` | -60.66 |
| `COc1ccc2c3c([nH]c2c1)[C@H](CO)N(C(=O)C1CCCC1)CC31CCN(C)CC1` | -22.55 |
| `C[C@@H]1CCCCO[C@@H](CN(C)S(=O)(=O)c2cccs2)[C@H](C)CN([C@H](C)CO)C(=O)c2cc(NS(=O)(=O)c3ccc(Cl)cc3)ccc2O1` | -39.7 |
| `C[C@@H]1CN([C@H](C)CO)C(=O)c2cc(NC(=O)Nc3cccc4ccccc34)ccc2O[C@H]1CN(C)Cc1ccccc1` | -28.78 |
| `Cc1ccccc1-c1ccc([C@H]2[C@@H](CO)N3CCCCN(C(=O)NC4CCCC4)C[C@@H]23)cc1` | -34.13 |
| `COc1ccc(CN(C)C[C@@H]2OCCCC[C@@H](C)Oc3ccc(NC(=O)CCC(F)(F)F)cc3C(=O)N([C@H](C)CO)C[C@H]2C)cc1` | -32.37 |
| `C[C@H](CO)N1C[C@H](C)[C@@H](CN(C)Cc2ccc(-c3ccccc3)cc2)Oc2ccc(NS(C)(=O)=O)cc2CC1=O` | -59.48 |

6 of the entries, repeated:

structure,activity change (Venus) (%)
CC(C)NC(=O)N1[C@H](C#N)[C@H](c2ccc(-c3ccc(F)cc3)cc2)[C@@H]1CO,-34.11
C[C@H]1CN([C@@H](C)CO)C(=O)c2ccccc2-c2ccccc2CO[C@H]1CN(C)S(=O)(=O)c1ccc(C(F)(F)F)cc1,-43.1
C[C@@H]1CN([C@@H](C)CO)C(=O)Cc2cc(NS(=O)(=O)c3cccs3)ccc2O[C@H]1CN(C)Cc1ccc(Oc2ccccc2)cc1,-39.59
O=S(=O)(c1ccccc1F)N1CC[C@@H]2[C@H]1c1cc(-c3ccccc3)ccc1N[C@@H]2CO,-38.23
COc1ccc2c3c([nH]c2c1)[C@H](CO)N(C(=O)C1CCCC1)CC31CCN(C)CC1,-22.55
COc1cccc(S(=O)(=O)N(C)C[C@H]2Oc3ncc(C#CC(C)C)cc3C(=O)N([C@@H](C)CO)C[C@@H]2C)c1,-41.13

The results are deposited in PubChem (AID1053133; Broad Institute, 2014).